# From patent US12351591B2, “KRas inhibitors” (ELI LILLY AND COMPANY, priority 2022, dated 2025)
# Some results were stated once for a whole list of compounds, not compound by compound.
# Target: T1, KRas wild-type (Homo sapiens, UniProt P01116)
# T1 construct: host or cells: MKN-45
# Assay: MKN-45 Cellular Active RAS GTPase ELISA (KRas Wild-type)
# Assay type: cell-based
# Conditions: PANC-1 versus MKN-45 Cellular Active RAS GTPase ELISA
row,Compound,selective inhibition preference for KRas G12D mutant over KRas wild-type
1,"N#Cc1c(N)sc2c(F)cnc(-c3c4c(c5c(N6C7CCC6CN(CC(CO)CO)C7)nc(OC[C@@]67CCCN6C[C@H](F)C7)nc5c3F)COC4)c12 [Example 228, 2-Amino-7-fluoro-4-[5-fluoro-3-[[(2R,8S)-2-fluoro-1,2,3,5,6,7-hexahydropyrrolizin-8-yl]methoxy]-1-[3-[3-hydroxy-2-(hydroxymethyl)propyl]-3,8-diazabicyclo[3.2.1]octan-8-yl]-7,9-dihydrofuro[3,4-f]quinazolin-6-yl]thieno[3,2-c]pyridine-3-carbonitrile]",greater than 10 fold
2,"CN1CCC[C@H]1COc1nc(N2C3CCC2CN(CC2COC2)C3)c2c3c(c(-c4c(F)ccc5sc(N)c(C#N)c45)c(F)c2n1)COC3 (single isomer, unassigned) [Example 149]",greater than 10 fold
3,"CNC(=O)CCN1CC2CCC(C1)N2c1nc(OC[C@@]23CCCN2C[C@H](F)C3)nc2c(F)c(-c3c(F)ccc4sc(N)c(C#N)c34)c3c(c12)COC3 (single isomer, unassigned) [Example 189]",greater than 10 fold
4,"CO[C@H](C)CN1CC2CCC(C1)N2c1nc(OC[C@@]23CCCN2C[C@H](F)C3)nc2c(F)c(-c3nccc4sc(N)c(C#N)c34)c3c(c12)COC3 [Example 120, 2-Amino-4-[5-fluoro-3-[[(2R,8S)-2-fluoro-1,2,3,5,6,7-hexahydropyrrolizin-8-yl]methoxy]-1-[3-[(2R)-2-methoxypropyl]-3,8-diazabicyclo[3.2.1]octan-8-yl]-7,9-dihydrofuro[3,4-f]quinazolin-6-yl]thieno[3,2-c]pyridine-3-carbonitrile]",greater than 10 fold
5,"CCN1CC2CCC(C1)N2c1nc(OC[C@@]23CCCN2C[C@H](F)C3)nc2c(F)c(-c3cccc4sc(N)c(C#N)c34)c3c(c12)COC3 [Example 25, 2-Amino-4-[1-(3-ethyl-3,8-diazabicyclo[3.2.1]octan-8-yl)-5-fluoro-3-[[(2R,8S)-2-fluoro-1,2,3,5,6,7-hexahydropyrrolizin-8-yl]methoxy]-7,9-dihydrofuro[3,4-f]quinazolin-6-yl]benzothiophene-3-carbonitrile]",greater than 10 fold
6,"N#Cc1c(N)sc2c(F)ccc(-c3c4c(c5c(N6C7CCC6CNC7)nc(OC[C@@H]6CCCN6CCF)nc5c3F)COC4)c12 [Example 11, 2-Amino-4-[1-(3,8-diazabicyclo[3.2.1]octan-8-yl)-5-fluoro-3-[[(2S)-1-(2-fluoroethyl)pyrrolidin-2-yl]methoxy]-7,9-dihydrofuro[3,4-f]quinazolin-6-yl]-7-fluoro-benzothiophene-3-carbonitrile]",greater than 10 fold
7,"CN1CC2CC(C1)N2c1nc(OC[C@H]2CN(C)CCO2)nc2c(F)c(-c3c(F)ccc4sc(N)c(C#N)c34)c3c(c12)COC3 (single isomer, unassigned) [Example 340]",greater than 10 fold
8,"C[C@@H](O)CN1CC2CCC(C1)N2c1nc(O[C@@H](C)CN2CCOCC2)nc2c(F)c(-c3ncc(F)c4sc(N)c(C#N)c34)c3c(c12)COC3 [Example 356, 2-Amino-7-fluoro-4-[5-fluoro-1-[3-[(2R)-2-hydroxypropyl]-3,8-diazabicyclo[3.2.1]octan-8-yl]-3-[(1S)-1-methyl-2-morpholino-ethoxy]-7,9-dihydrofuro[3,4-f]quinazolin-6-yl]thieno[3,2-c]pyridine-3-carbonitrile]",greater than 10 fold
9,"CO[C@@H]1C[C@@H](COc2nc(N3C4CCC3CN(C[C@@H](C)O)C4)c3c4c(c(-c5c(F)ccc6sc(N)c(C#N)c56)c(F)c3n2)COC4)N(C)C1 (single isomer, unassigned) [Example 243]",greater than 10 fold
10,"N#Cc1c(N)oc2ccc(F)c(-c3c4c(c5c(N6C7CCC6CNC7)nc(OC[C@@]67CCCN6C[C@H](F)C7)nc5c3F)COC4)c12 (single isomer, unassigned) [Example 62]",greater than 10 fold
